Test results published in patent US20260259232A1, “A METHOD” (OWLSTONE MEDICAL LIMITED, priority 2022, published 2026).

Test: Breath analysis by SIFT-MS before and after ingestion of 75 g glucose in healthy subjects
Type: in vivo, human
Conditions: 10 healthy subjects; 75 grams of glucose

Compound	Spike in breath elicited by glucose administration
CC(O)C(C)O (stereo not drawn) [2-3-Butanediol, 2,3-butanediol]	No spike
CC(=O)C(C)O (stereo not drawn) [acetoin]	spike of acetoin in all the subjects
CCO [ethanol]	spike of ethanol in breath in all the tested subjects
